Results are given in words; binding and its absence hold for the method and conditions named. For some assays here: Binding seen in cells or lysates may run through a third protein. Some entries that bind do so weakly or less than the wild type. Sequences can lack the tags named with a protein.
What was measured:
[1] = target: T1, THAP1-C3 deletion mutant (amino acids 143-213) (human) (UniProt Q9NVV9); experiment: GST pull-down, 35S-labelled in vitro translated molecule
T1 sequence: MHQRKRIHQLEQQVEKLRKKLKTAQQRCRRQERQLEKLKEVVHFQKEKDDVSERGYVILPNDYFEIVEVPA

Amino acid sequences for entries named in this document (tags omitted). A change or cut given only in a name is not applied to a line headed by its entry. Residues count along the entry.
UniProt Q99616: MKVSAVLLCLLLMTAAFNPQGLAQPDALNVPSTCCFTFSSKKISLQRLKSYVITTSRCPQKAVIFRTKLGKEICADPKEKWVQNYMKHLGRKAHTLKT
UniProt P10145: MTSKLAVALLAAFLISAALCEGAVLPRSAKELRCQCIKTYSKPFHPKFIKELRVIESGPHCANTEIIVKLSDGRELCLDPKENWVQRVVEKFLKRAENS
UniProt O00585: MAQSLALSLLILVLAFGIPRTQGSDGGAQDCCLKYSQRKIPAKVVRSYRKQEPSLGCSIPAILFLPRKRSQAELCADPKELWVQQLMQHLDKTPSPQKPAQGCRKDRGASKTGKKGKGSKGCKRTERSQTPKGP
UniProt P13500: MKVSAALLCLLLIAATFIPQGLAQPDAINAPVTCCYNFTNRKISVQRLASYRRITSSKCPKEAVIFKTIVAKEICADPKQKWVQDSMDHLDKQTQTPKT
UniProt P48061, residues 1-89: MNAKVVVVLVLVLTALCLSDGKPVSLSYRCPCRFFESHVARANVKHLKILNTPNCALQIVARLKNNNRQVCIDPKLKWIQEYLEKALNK

chemokine CXCL11 [2] = target: T2, chemokine CXCL11 (UniProt O14625); experiment: as above
T2 sequence (looked up): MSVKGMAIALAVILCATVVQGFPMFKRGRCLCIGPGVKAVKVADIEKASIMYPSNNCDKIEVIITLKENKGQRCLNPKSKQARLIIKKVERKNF

chemokine CCL13 [3] = target: chemokine CCL13 (UniProt Q99616); experiment: as above
chemokine CXCL8 = chemokine CXCL8 (UniProt P10145); experiment: as above
[4] = target: human chemokine SLC/CCL21, mature form (amino acids 24-134) (human) (UniProt O00585); experiment: as above
chemokine CCL2 [5] = target: chemokine CCL2 (UniProt P13500); experiment: GST pull-down, 35S-labelled in vitro translated chemokine
chemokine CXCL12 [6] = target: chemokine CXCL12 (UniProt P48061); experiment: as above
[7] = target: human chemokine SLC/CCL21, mature form (amino acids 24-134) (human) (UniProt O00585); experiment: as above
[8] = target: T3, human chemokine MIG/CXCL9, mature form (amino acids 23-125) (human) (UniProt Q07325); experiment: as above
T3 sequence: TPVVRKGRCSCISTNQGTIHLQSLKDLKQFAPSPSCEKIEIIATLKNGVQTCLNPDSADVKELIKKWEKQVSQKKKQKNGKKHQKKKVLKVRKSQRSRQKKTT

chemokine CCL2 [9] = target: chemokine CCL2 (UniProt P13500); experiment: GST pull-down: in vitro translated 35S-labelled chemokine or cytokine on the GST fusion immobilised on glutathione sepharose, SDS-PAGE, fluorography
chemokine CXCL12 [10] = target: chemokine CXCL12 (UniProt P48061); experiment: as above
[11] = target: human chemokine SLC/CCL21, mature form (amino acids 24-134) (human) (UniProt O00585); experiment: as above
[12] = target: T3, human chemokine MIG/CXCL9, mature form (amino acids 23-125) (human); experiment: as above
[13] = target: T1, THAP1-C3 deletion mutant (amino acids 143-213) (human); experiment: GST pull-down: in vitro translated 35S-labelled protein on the GST fusion immobilised on glutathione sepharose, SDS-PAGE, fluorography
chemokine CXCL11 [14] = target: T2, chemokine CXCL11; experiment: as above
chemokine CCL13 [15] = target: chemokine CCL13 (UniProt Q99616); experiment: as above
[16] = target: human chemokine SLC/CCL21, mature form (amino acids 24-134) (human) (UniProt O00585); experiment: as above

binding [1]: binds
binding (chemokine CXCL11 [2]): binds
binding (chemokine CCL13 [3]): binds
binding (chemokine CXCL8): no binding
binding [4]: binds
binding (chemokine CCL2 [5]): binds
binding (chemokine CXCL12 [6]): binds
binding [7]: binds
binding [8]: binds
binding (chemokine CCL2 [9]): binds
binding (chemokine CXCL12 [10]): binds
binding [11]: binds
binding [12]: binds
binding [13]: binds
binding (chemokine CXCL11 [14]): binds
binding (chemokine CCL13 [15]): binds
binding [16]: binds
B1: GST-THAP3 181-284 (chemokine-binding domain of THAP3) (protein, not shown: a dimerising Fc or GST; small tags and cut ends)
chain: LPPNAEGHVKQVSPRRPQATEAVGRPTGPAGLRRTPNKQPSDHSYALLDLDSLKKKLFLTLKENEKLRKRLQAQRLVMRRMSSRLRACKGHQGLQARLGPEQQS
